For at least one compound, name, drawing or mass did not settle the structure.
Tested on: Arg2
Assay: Arg2 gene expression in cultured primary hepatocytes (RNA-seq, qPCR)
Format: cell-based, murine
Details: primary hepatocytes pre-treated with pyruvate; 100 mM trehalose
From the text: AML12 cells (CRL-2254) were purchased directly from the American Type Culture Collection (ATCC) and propagated and maintained precisely per manufacturer specification. Primary hepatocyte cell isolation, culture and treatment Primary murine hepatocytes obtained from WT mice were isolated^24,25,31 and cultured and maintained in regular DMEM growth media (Sigma, #D5796) containing 10% FBS. For in vitro starvation experiments, “starved” media contained 1 g/L glucose and 0:5% FBS was used. Cultures were lysed in Trizol and subjected to downstream analysis. In vitro genetic knockdown was achieved via siRNA transfection using Lipofectamine 3000 from Invitrogen (L3000015). Trehalose was obtained from Sigma Aldrich (St. Louis, MO) and was >97% purity by HPLC. Three percent trehalose water (w/v) fed ad libitum was used in all in vivo experiments.
Total RNA was prepared by homogenizing snap-frozen livers or cultured hepatocytes in Trizol reagent (Invitrogen #15596026) according to the manufacturer's protocol. cDNA was prepared using Qiagen Quantitect reverse transcriptase kit (Qiagen #205310). Real-time qPCR was performed with Step-One Plus Real-Time PCR System (Applied Biosystems) using SYBR Green master Mix Reagent (Applied Biosystems) and specific primer pairs. Relative gene expression was calculated by a comparative method using values normalized to the expression of an internal control gene.

CC(=O)C(=O)O [Pyruvate, pyruvate]
trehalose-induced Arg2 response: significantly reduced the trehalose-induced Arg2 response

Source: patent publication US12508306B2, “Compositions and methods of use thereof for treatment of metabolic diseases and related disorders” (Washington University, priority 2018, dated 2025)
